# Measurements taken from the supplement of paper PMC8728848.
# The other results are listed elsewhere or left out.
# Experiments:
# Test in all cases: glycan array binding signal (z-score within array); higher = stronger binding
# Conditions in all cases: glycan notation: IUPAC condensed, linker removed
# [1] = system: Neu5Ac(a2-3)[Neu5Ac(a2-6)]GalNAc
# Method in brief: (§1)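 Arrays were curated from the Consortium for Functional Glycomics database, 3228 in total, and kept only where the protein sequence was available. Binding is expressed as a within-array Z-score. This score was averaged across arrays of the same protein sequence at different concentrations or buffers and across linkers, and negative values can be read as non-binding.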
# [2] = system: Neu5Ac(a2-6)Gal(b1-3)GlcNAc(b1-3)[Gal(b1-4)GlcNAc(b1-6)]Gal(b1-4)Glc
# Method in brief: as §1
# [3] = system: Neu5Ac(a2-6)Gal(b1-4)GlcNAc(b1-2)Man(a1-3)Man(b1-4)GlcNAc(b1-4)GlcNAc
# Method in brief: as §1
# [4] = system: Neu5Ac(a2-6)Gal(b1-4)GlcNAc(b1-2)Man(a1-3)[Gal(b1-4)GlcNAc(b1-2)Man(a1-6)]Man(b1-4)GlcNAc(b1-4)GlcNAc
# Method in brief: as §1
# [5] = system: Neu5Ac(a2-6)Gal(b1-4)GlcNAc(b1-2)Man(a1-3)[GlcNAc(b1-2)Man(a1-6)]Man(b1-4)GlcNAc(b1-4)GlcNAc
# Method in brief: as §1
# [6] = system: Neu5Ac(a2-6)Gal(b1-4)GlcNAc(b1-2)Man(a1-3)[GlcNAc(b1-2)Man(b1-4)GlcNAc(b1-2)Man(a1-6)]Man(b1-4)GlcNAc(b1-4)GlcNAc
# Method in brief: as §1
# [7] = system: Neu5Ac(a2-6)Gal(b1-4)GlcNAc(b1-2)Man(a1-3)[Man(a1-6)]Man(b1-4)GlcNAc(b1-4)GlcNAc
# Method in brief: as §1
# [8] = system: Neu5Ac(a2-6)Gal(b1-4)GlcNAc(b1-2)Man(a1-3)[Neu5Ac(a2-6)Gal(b1-4)GlcNAc(b1-2)Man(a1-6)]Man(b1-4)GlcNAc(b1-4)GlcNAc
# Method in brief: as §1
# [9] = system: Neu5Ac(a2-6)Gal(b1-4)GlcNAc(b1-2)Man(a1-3)[Neu5Ac(a2-6)Gal(b1-4)GlcNAc(b1-2)Man(a1-6)]Man(b1-4)GlcNAc(b1-4)[Fuc(a1-6)]GlcNAc
# Method in brief: as §1
# [10] = system: Neu5Ac(a2-6)Gal(b1-4)GlcNAc(b1-2)Man(a1-6)Man(b1-4)GlcNAc(b1-4)GlcNAc
# Method in brief: as §1
# [11] = system: Neu5Ac(a2-6)Gal(b1-4)GlcNAc(b1-2)Man(a1-6)[Gal(b1-4)GlcNAc(b1-2)Man(a1-3)]Man(b1-4)GlcNAc(b1-4)GlcNAc
# Method in brief: as §1
# [12] = system: Neu5Ac(a2-6)Gal(b1-4)GlcNAc(b1-2)Man(a1-6)[GlcNAc(b1-2)Man(a1-3)]Man(b1-4)GlcNAc(b1-4)GlcNAc
# Method in brief: as §1
# [13] = system: Neu5Ac(a2-6)Gal(b1-4)GlcNAc(b1-2)Man(a1-6)[Man(a1-3)]Man(b1-4)GlcNAc(b1-4)GlcNAc
# Method in brief: as §1
# [14] = system: Neu5Ac(a2-6)Gal(b1-4)GlcNAc(b1-3)Gal(b1-3)GlcNAc
# Method in brief: as §1
# [15] = system: Neu5Ac(a2-6)Gal(b1-4)GlcNAc(b1-3)Gal(b1-4)GlcNAc(b1-3)Gal(b1-4)GlcNAc
# Method in brief: as §1
# [16] = system: Neu5Ac(a2-6)Gal(b1-4)GlcNAc(b1-3)Gal(b1-4)GlcNAc
# Method in brief: as §1
# [17] = system: Neu5Ac(a2-6)Gal(b1-4)GlcNAc(b1-3)Gal(b1-4)[Fuc(a1-3)]GlcNAc(b1-3)Gal(b1-4)[Fuc(a1-3)]GlcNAc
# Method in brief: as §1
# [18] = system: Neu5Ac(a2-6)Gal(b1-4)GlcNAc(b1-3)GalNAc
# Method in brief: as §1
# [19] = system: Neu5Ac(a2-6)Gal(b1-4)GlcNAc(b1-3)[Neu5Ac(a2-6)Gal(b1-4)GlcNAc(b1-6)]GalNAc
# Method in brief: as §1
# [20] = system: Neu5Ac(a2-6)Gal(b1-4)GlcNAc(b1-6)GalNAc
# Method in brief: as §1
# [21] = system: Neu5Ac(a2-6)Gal(b1-4)GlcNAc(b1-6)[Gal(b1-3)GlcNAc(b1-3)]Gal(b1-4)Glc
# Method in brief: as §1
# [22] = system: Neu5Ac(a2-6)Gal(b1-4)GlcNAc6S
# Method in brief: as §1
# [23] = system: Neu5Ac(a2-6)Gal(b1-4)GlcNAc
# Method in brief: as §1
# Neu5Ac(a2-6)Gal(b1-4)Glc = system: Neu5Ac(a2-6)Gal(b1-4)Glc
# Method in brief: as §1
# [24] = system: Neu5Ac(a2-6)GalNAc(b1-4)GlcNAc6S
# Method in brief: as §1
# [25] = system: Neu5Ac(a2-6)GalNAc(b1-4)GlcNAc
# Method in brief: as §1
# Neu5Ac(a2-6)GalNAc = system: Neu5Ac(a2-6)GalNAc
# Method in brief: as §1
# Neu5Ac(a2-6)Gal = system: Neu5Ac(a2-6)Gal
# Method in brief: as §1
# [26] = system: Neu5Ac(a2-6)GlcNAc(b1-4)GlcNAc(b1-4)GlcNAc
# Method in brief: as §1
# [27] = system: Neu5Ac(a2-6)GlcNAc(b1-4)GlcNAc
# Method in brief: as §1
# [28] = system: Neu5Ac(a2-8)Neu5Ac(a2-3)Gal(b1-3)GalNAc(b1-4)[Neu5Ac(a2-8)Neu5Ac(a2-3)]Gal(b1-4)Glc
# Method in brief: as §1
# [29] = system: Neu5Ac(a2-8)Neu5Ac(a2-3)Gal(b1-4)Glc
# Method in brief: as §1
# [30] = system: Neu5Ac(a2-8)Neu5Ac(a2-3)[Gal(b1-3)GalNAc(b1-4)]Gal(b1-4)Glc
# Method in brief: as §1
# [31] = system: Neu5Ac(a2-8)Neu5Ac(a2-3)[GalNAc(b1-4)]Gal(b1-4)Glc
# Method in brief: as §1
# [32] = system: Neu5Ac(a2-8)Neu5Ac(a2-8)Neu5Ac(a2-3)Gal(b1-4)Glc
# Method in brief: as §1
# [33] = system: Neu5Ac(a2-8)Neu5Ac(a2-8)Neu5Ac(a2-3)[GalNAc(b1-4)]Gal(b1-4)Glc
# Method in brief: as §1
# [34] = system: Neu5Ac(a2-8)Neu5Ac(a2-8)Neu5Ac(a2-8)Neu5Ac(a2-3)[GalNAc(b1-4)]Gal(b1-4)Glc
# Method in brief: as §1
# [35] = system: Neu5Ac(a2-8)Neu5Ac(a2-8)Neu5Ac
# Method in brief: as §1
# Neu5Ac(a2-8)Neu5Ac = system: Neu5Ac(a2-8)Neu5Ac
# Method in brief: as §1
# [36] = system: Neu5Ac(b2-6)Gal(b1-4)GlcNAc
# Method in brief: as §1
# Neu5Ac(b2-6)GalNAc = system: Neu5Ac(b2-6)GalNAc
# Method in brief: as §1
# [37] = system: Neu5Ac9Ac(a2-3)Gal(b1-3)GlcNAc
# Method in brief: as §1
# [38] = system: Neu5Ac9Ac(a2-3)Gal(b1-4)GlcNAc
# Method in brief: as §1
# [39] = system: Neu5Ac9Ac(a2-6)Gal(b1-4)GlcNAc
# Method in brief: as §1
# [40] = system: Neu5Gc(a2-3)Gal(b1-3)GlcNAc
# Method in brief: as §1
# [41] = system: Neu5Gc(a2-3)Gal(b1-3)[Fuc(a1-4)]GlcNAc
# Method in brief: as §1
# [42] = system: Neu5Gc(a2-3)Gal(b1-4)GlcNAc
# Method in brief: as §1
# Neu5Gc(a2-3)Gal(b1-4)Glc = system: Neu5Gc(a2-3)Gal(b1-4)Glc
# Method in brief: as §1
# [43] = system: Neu5Gc(a2-3)Gal(b1-4)[Fuc(a1-3)]GlcNAc
# Method in brief: as §1
# [44] = system: Neu5Gc(a2-6)Gal(b1-4)GlcNAc
# Method in brief: as §1
# Neu5Gc(a2-6)GalNAc = system: Neu5Gc(a2-6)GalNAc
# Method in brief: as §1
# [45] = system: Neu5Gc(b2-6)Gal(b1-4)GlcNAc
# Method in brief: as §1
substance,measurement,setting,value
"Wza (Escherichia coli), P0A930",glycan array binding signal (z-score),[1],-0.63
same,glycan array binding signal (z-score),[2],0.652
same,glycan array binding signal (z-score),[3],-0.725
same,glycan array binding signal (z-score),[4],-0.614
same,glycan array binding signal (z-score),[5],-0.492
same,glycan array binding signal (z-score),[6],0.014
same,glycan array binding signal (z-score),[7],0.426
same,glycan array binding signal (z-score),[8],-0.073
same,glycan array binding signal (z-score),[9],-0.578
same,glycan array binding signal (z-score),[10],-0.625
same,glycan array binding signal (z-score),[11],-0.739
same,glycan array binding signal (z-score),[12],-1.02
same,glycan array binding signal (z-score),[13],0.321
same,glycan array binding signal (z-score),[14],-0.325
same,glycan array binding signal (z-score),[15],0.651
same,glycan array binding signal (z-score),[16],-0.426
same,glycan array binding signal (z-score),[17],-1.03
same,glycan array binding signal (z-score),[18],0.761
same,glycan array binding signal (z-score),[19],-0.876
same,glycan array binding signal (z-score),[20],-0.468
same,glycan array binding signal (z-score),[21],0.411
same,glycan array binding signal (z-score),[22],0.193
same,glycan array binding signal (z-score),[23],-0.515
same,glycan array binding signal (z-score),Neu5Ac(a2-6)Gal(b1-4)Glc,-0.149
same,glycan array binding signal (z-score),[24],-0.508
same,glycan array binding signal (z-score),[25],-2.41
same,glycan array binding signal (z-score),Neu5Ac(a2-6)GalNAc,-0.032
same,glycan array binding signal (z-score),Neu5Ac(a2-6)Gal,0.8
same,glycan array binding signal (z-score),[26],-0.523
same,glycan array binding signal (z-score),[27],2.36
same,glycan array binding signal (z-score),[28],-0.952
same,glycan array binding signal (z-score),[29],0.72
same,glycan array binding signal (z-score),[30],-0.37
same,glycan array binding signal (z-score),[31],-0.306
same,glycan array binding signal (z-score),[32],0.179
same,glycan array binding signal (z-score),[33],-1.54
same,glycan array binding signal (z-score),[34],-0.938
same,glycan array binding signal (z-score),[35],-0.6
same,glycan array binding signal (z-score),Neu5Ac(a2-8)Neu5Ac,-0.374
same,glycan array binding signal (z-score),[36],1.45
same,glycan array binding signal (z-score),Neu5Ac(b2-6)GalNAc,-1.62
same,glycan array binding signal (z-score),[37],0.929
same,glycan array binding signal (z-score),[38],-1.32
same,glycan array binding signal (z-score),[39],-1.06
same,glycan array binding signal (z-score),[40],-0.642
same,glycan array binding signal (z-score),[41],-0.122
same,glycan array binding signal (z-score),[42],-0.426
same,glycan array binding signal (z-score),Neu5Gc(a2-3)Gal(b1-4)Glc,-0.672
same,glycan array binding signal (z-score),[43],0.354
same,glycan array binding signal (z-score),[44],-0.914
same,glycan array binding signal (z-score),Neu5Gc(a2-6)GalNAc,-1.36
same,glycan array binding signal (z-score),[45],-0.929

# Quoted at random: three records from the list.
substance,measurement,setting,value
"Wza (Escherichia coli), P0A930",glycan array binding signal (z-score),[20],-0.468
same,glycan array binding signal (z-score),[43],0.354
same,glycan array binding signal (z-score),[11],-0.739
